# Reference: PMC7324161
# Results are given in words; binding and its absence hold for the method and conditions named. For some assays here: In cells and extracts the contact can be indirect. Some binding calls cover weakened binding; strength is not graded here. For some assays here: Tags and fused reporters may be left off the sequences shown.
# Experiments:
# [1] = molecular target: SIRT6 (endogenous) (human (endogenous in HEK293 and HeLa)), Q8N6T7; assay: co-IP; endogenous proteins in HeLa cells; anti-SIRT6 or anti-SIRT1 immunoprecipitates blotted for the other; conditions: remark: other sources report otherwise
# [2] = molecular target: FLAG-SIRT6 (human), Q8N6T7; assay: co-IP; HEK293 cells transfected with FLAG-SIRT6 or FLAG-SIRT1; anti-FLAG M2 agarose at 4°C overnight, lysis buffer 50 mM Tris-HCl pH 7.4, 200 mM NaCl, 0.2% NP40; blot for the endogenous partner; also with CPT (1 μM, 1 hr), which enhanced the interaction; conditions: remark: other sources report otherwise
# [3] = molecular target: GST-SIRT6 (human), Q8N6T7; assay: pull-down; GST pulldown in vitro between GST-SIRT6 (WT, ΔN, ΔC) and His-SIRT1, without peptide; both purified; conditions: remark: other sources report otherwise
# [4] = molecular target: GST-SIRT6 (human), Q8N6T7; assay: pull-down; GST pulldown in vitro between GST-SIRT6 and His-SIRT1 in the presence of 10 μM K33ac peptide; both purified; conditions: remark: other sources report otherwise
# His-SIRT1 (human) = His-SIRT1 (human) (UniProt Q96EB6); assay: as above
binder,measurement,setting,value
"SIRT1 (endogenous), Q96EB6 1-747 (protein) MADEAALALQPGGSPSAAGADREAASSPAGEPLRKRPRRDGPGLERSPGEPGGAAPEREVPAAARGCPGAAAAALWREAEAEAAAAGGEQEAQATAAAGEGDNGPGLQGPSREPPLADNLYDEDDDDEGEEEEEAAAAAIGYRDNLLFGDEIITNGFHSCESDEEDRASHASSSDWTPRPRIGPYTFVQQHLMIGTDPRTILKDLLPETIPPPELDDMTLWQIVINILSEPPKRKKRKDINTIEDAVKLLQECKKIIVLTGAGVSVSCGIPDFRSRDGIYARLAVDFPDLPDPQAMFDIEYFRKDPRPFFKFAKEIYPGQFQPSLCHKFIALSDKEGKLLRNYTQNIDTLEQVAGIQRIIQCHGSFATASCLICKYKVDCEAVRGDIFNQVVPRCPRCPADEPLAIMKPEIVFFGENLPEQFHRAMKYDKDEVDLLIVIGSSLKVRPVALIPSSIPHEVPQILINREPLPHLHFDVELLGDCDVIINELCHRLGGEYAKLCCNPVKLSEITEKPPRTQKELAYLSELPPTPLHVSEDSSSPERTSPPDSSVIVTLLDQAAKSNDDLDVSESKGCMEEKPQEVQTSRNVESIAEQMENPDLKNVGSSTGEKNERTSVAGTVRKCWPNRVAKEQISRRLDGNQYLFLPPNRYIFHGAEVYSDSEDDVLSSSSCGSNSDSGTCQSPSLEEPMEDESEIEEFYNGLEDEPDVPERAGGAGFGTDGDDQEAINEAISVKQEVTDMNYPSNKS",binding,[1],binds
same,binding,[2],binds
"His-SIRT1, Q96EB6 1-747 (protein) MADEAALALQPGGSPSAAGADREAASSPAGEPLRKRPRRDGPGLERSPGEPGGAAPEREVPAAARGCPGAAAAALWREAEAEAAAAGGEQEAQATAAAGEGDNGPGLQGPSREPPLADNLYDEDDDDEGEEEEEAAAAAIGYRDNLLFGDEIITNGFHSCESDEEDRASHASSSDWTPRPRIGPYTFVQQHLMIGTDPRTILKDLLPETIPPPELDDMTLWQIVINILSEPPKRKKRKDINTIEDAVKLLQECKKIIVLTGAGVSVSCGIPDFRSRDGIYARLAVDFPDLPDPQAMFDIEYFRKDPRPFFKFAKEIYPGQFQPSLCHKFIALSDKEGKLLRNYTQNIDTLEQVAGIQRIIQCHGSFATASCLICKYKVDCEAVRGDIFNQVVPRCPRCPADEPLAIMKPEIVFFGENLPEQFHRAMKYDKDEVDLLIVIGSSLKVRPVALIPSSIPHEVPQILINREPLPHLHFDVELLGDCDVIINELCHRLGGEYAKLCCNPVKLSEITEKPPRTQKELAYLSELPPTPLHVSEDSSSPERTSPPDSSVIVTLLDQAAKSNDDLDVSESKGCMEEKPQEVQTSRNVESIAEQMENPDLKNVGSSTGEKNERTSVAGTVRKCWPNRVAKEQISRRLDGNQYLFLPPNRYIFHGAEVYSDSEDDVLSSSSCGSNSDSGTCQSPSLEEPMEDESEIEEFYNGLEDEPDVPERAGGAGFGTDGDDQEAINEAISVKQEVTDMNYPSNKS",binding,[3],binds
same,binding,[4],binds
PEELERKVWELARL (acetyl-lysine at K33 (K(ac))) [K33ac peptide],binding,His-SIRT1 (human),binds
